Reference: patent publication US4960788A, “Pyrrolidone-2 compounds and their use for central analgesic activity” (priority 1988, dated 1990)

Tested on: guinea-pig isolated ileum
Assay: morphine-like activity on guinea-pig isolated ileum (inhibition of electrically induced contractions)
Assay type: cell-based
Conditions: Cavia porcellus; inhibition of 50% of contraction; electric stimulation 0.1 Hz-0.5 msec.
Description: The experiments were carried out according to the method described by Goldstein and Schultz (Br. J. Pharmacol., 48, 655, 1975) which is based on the capacity of the molecules showing an agonist activity on opioid receptors to inhibit the contractions of smooth muscles of guinea-pig ileum induced by electric stimulation (0.1 Hz-0.5 msec.).
The pharmacological activity was expressed as the necessary concentration (mM) to inhibit 50% of contraction (IC50).

Compound: CN1CC[C@]23c4c5ccc(O)c4O[C@H]2[C@@H](O)C=C[C@H]3[C@H]1C5 [morphine, reference compound]
- IC50: 111 nM
